According to PMC12887393:

What was measured:
Experiment in all cases: EMSA
[1] = system: T1, MBP-RAD51AP1-F3-His6 (WT); conditions: EMSA buffer; KD(app) from one-site specific binding fit (GraphPad Prism 10), n = 3-4; recombinant protein; residues 188-335; protein details: N-terminal MBP, C-terminal His6; label: Cy5; single-stranded DNA
T1 sequence (looked up): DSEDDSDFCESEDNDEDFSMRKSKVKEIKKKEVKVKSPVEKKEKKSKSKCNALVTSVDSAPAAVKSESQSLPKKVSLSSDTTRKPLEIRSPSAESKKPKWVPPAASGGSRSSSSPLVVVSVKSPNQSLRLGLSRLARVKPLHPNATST

[2] = system: T2, MBP-RAD51AP1-F3-S2A-His6 S277A,S282A; conditions: tighter than WT and S2D; EMSA buffer; KD(app) from one-site specific binding fit (GraphPad Prism 10), n = 3-4; recombinant protein; residues 188-335; protein details: N-terminal MBP, C-terminal His6; label: Cy5; single-stranded DNA
T2 sequence (looked up): T1 sequence (looked up) with S90A, S95A

[3] = system: T3, MBP-RAD51AP1-F3-S2D-His6 S277D,S282D; conditions: not significantly different from WT; EMSA buffer; KD(app) from one-site specific binding fit (GraphPad Prism 10), n = 3-4; recombinant protein; residues …; protein details: N-terminal MBP, C-terminal His6; label: Cy5; single-stranded DNA
T3 sequence (looked up): T1 sequence (looked up) with S90D, S95D

Measured: binding result

TCGTAGACAGCTCTAGCACCGCTTAAACGCACGTAGGCGCTGTCCCCCGCGTTTTAACCGCCAAGGGGATTACTCCCTAG [Cy5-ssDNA 80-mer]
binds: all assays above

Residue numbers refer to the chain shown, from its start. The exact form of at least one protein or probe is not confirmed. Where a protein sequence is shown, tags need not be part of it.
